Assay results taken from publication doi:10.1101/2024.09.22.614354 (bioRxiv, 2024).
Like-named read-outs stand apart in the source and are kept apart here. These are yes or no findings as the source states them, for the method shown. Some results given as binding are weak or reduced against the parent protein; the word gives no strength.

B1: Rb^P M704V (domain or fragment, UniProt P06400 380-788)
chain: NTIQQLMMILNSASDQPSENLISYFNNCTVNPKESILKRVKDIGYIFKEKFAKAVGQGCVEIGSQRYKLGVRLYYRVMESMLKSEEERLSIQNFSKLLNDNIFHMSLLACALEVVMATYSRSTSQNLDSGTDLSFPWILNVLNLKAFDFYKVIESFIKAEGNLTREMIKHLERCEHRIMESLAWLSDSPLFDLIKQSKDREGPTDHLESACPLNLPLQNNHTAADMYLSPVRSPKKKGSTTRVNSTANAETQATSAFQTQKPLKSTSLSLFYKKVYRLAYLRLNTLCERLLSEHPELEHIIWTLFQHTLQNEYELMRDRHLDQIVMCSMYGICKVKNIDLKFKIIVTAYKDLPHAVQETFKRVLIKEEEYDSIIVFYNSVFMQRLKTNILQYASTRPPTLSPIPHIPRS
B2: Rb^P R741S (domain or fragment, UniProt P06400 380-788)
chain: NTIQQLMMILNSASDQPSENLISYFNNCTVNPKESILKRVKDIGYIFKEKFAKAVGQGCVEIGSQRYKLGVRLYYRVMESMLKSEEERLSIQNFSKLLNDNIFHMSLLACALEVVMATYSRSTSQNLDSGTDLSFPWILNVLNLKAFDFYKVIESFIKAEGNLTREMIKHLERCEHRIMESLAWLSDSPLFDLIKQSKDREGPTDHLESACPLNLPLQNNHTAADMYLSPVRSPKKKGSTTRVNSTANAETQATSAFQTQKPLKSTSLSLFYKKVYRLAYLRLNTLCERLLSEHPELEHIIWTLFQHTLQNEYELMRDRHLDQIMMCSMYGICKVKNIDLKFKIIVTAYKDLPHAVQETFKSVLIKEEEYDSIIVFYNSVFMQRLKTNILQYASTRPPTLSPIPHIPRS
B3: Rb^P S751Y (domain or fragment, UniProt P06400 380-788)
chain: NTIQQLMMILNSASDQPSENLISYFNNCTVNPKESILKRVKDIGYIFKEKFAKAVGQGCVEIGSQRYKLGVRLYYRVMESMLKSEEERLSIQNFSKLLNDNIFHMSLLACALEVVMATYSRSTSQNLDSGTDLSFPWILNVLNLKAFDFYKVIESFIKAEGNLTREMIKHLERCEHRIMESLAWLSDSPLFDLIKQSKDREGPTDHLESACPLNLPLQNNHTAADMYLSPVRSPKKKGSTTRVNSTANAETQATSAFQTQKPLKSTSLSLFYKKVYRLAYLRLNTLCERLLSEHPELEHIIWTLFQHTLQNEYELMRDRHLDQIMMCSMYGICKVKNIDLKFKIIVTAYKDLPHAVQETFKRVLIKEEEYDYIIVFYNSVFMQRLKTNILQYASTRPPTLSPIPHIPRS
B4: Rb^P A525G (domain or fragment, UniProt P06400 380-788)
chain: NTIQQLMMILNSASDQPSENLISYFNNCTVNPKESILKRVKDIGYIFKEKFAKAVGQGCVEIGSQRYKLGVRLYYRVMESMLKSEEERLSIQNFSKLLNDNIFHMSLLACALEVVMATYSRSTSQNLDSGTDLSFPWILNVLNLKGFDFYKVIESFIKAEGNLTREMIKHLERCEHRIMESLAWLSDSPLFDLIKQSKDREGPTDHLESACPLNLPLQNNHTAADMYLSPVRSPKKKGSTTRVNSTANAETQATSAFQTQKPLKSTSLSLFYKKVYRLAYLRLNTLCERLLSEHPELEHIIWTLFQHTLQNEYELMRDRHLDQIMMCSMYGICKVKNIDLKFKIIVTAYKDLPHAVQETFKRVLIKEEEYDSIIVFYNSVFMQRLKTNILQYASTRPPTLSPIPHIPRS
B5: Rb^P R741C (domain or fragment, UniProt P06400 380-788)
chain: NTIQQLMMILNSASDQPSENLISYFNNCTVNPKESILKRVKDIGYIFKEKFAKAVGQGCVEIGSQRYKLGVRLYYRVMESMLKSEEERLSIQNFSKLLNDNIFHMSLLACALEVVMATYSRSTSQNLDSGTDLSFPWILNVLNLKAFDFYKVIESFIKAEGNLTREMIKHLERCEHRIMESLAWLSDSPLFDLIKQSKDREGPTDHLESACPLNLPLQNNHTAADMYLSPVRSPKKKGSTTRVNSTANAETQATSAFQTQKPLKSTSLSLFYKKVYRLAYLRLNTLCERLLSEHPELEHIIWTLFQHTLQNEYELMRDRHLDQIMMCSMYGICKVKNIDLKFKIIVTAYKDLPHAVQETFKCVLIKEEEYDSIIVFYNSVFMQRLKTNILQYASTRPPTLSPIPHIPRS
B6: Rb^P R763T (domain or fragment, UniProt P06400 380-788)
chain: NTIQQLMMILNSASDQPSENLISYFNNCTVNPKESILKRVKDIGYIFKEKFAKAVGQGCVEIGSQRYKLGVRLYYRVMESMLKSEEERLSIQNFSKLLNDNIFHMSLLACALEVVMATYSRSTSQNLDSGTDLSFPWILNVLNLKAFDFYKVIESFIKAEGNLTREMIKHLERCEHRIMESLAWLSDSPLFDLIKQSKDREGPTDHLESACPLNLPLQNNHTAADMYLSPVRSPKKKGSTTRVNSTANAETQATSAFQTQKPLKSTSLSLFYKKVYRLAYLRLNTLCERLLSEHPELEHIIWTLFQHTLQNEYELMRDRHLDQIMMCSMYGICKVKNIDLKFKIIVTAYKDLPHAVQETFKRVLIKEEEYDSIIVFYNSVFMQTLKTNILQYASTRPPTLSPIPHIPRS
B7: Rb^P E554K (domain or fragment, UniProt P06400 380-788)
chain: NTIQQLMMILNSASDQPSENLISYFNNCTVNPKESILKRVKDIGYIFKEKFAKAVGQGCVEIGSQRYKLGVRLYYRVMESMLKSEEERLSIQNFSKLLNDNIFHMSLLACALEVVMATYSRSTSQNLDSGTDLSFPWILNVLNLKAFDFYKVIESFIKAEGNLTREMIKHLERCKHRIMESLAWLSDSPLFDLIKQSKDREGPTDHLESACPLNLPLQNNHTAADMYLSPVRSPKKKGSTTRVNSTANAETQATSAFQTQKPLKSTSLSLFYKKVYRLAYLRLNTLCERLLSEHPELEHIIWTLFQHTLQNEYELMRDRHLDQIMMCSMYGICKVKNIDLKFKIIVTAYKDLPHAVQETFKRVLIKEEEYDSIIVFYNSVFMQRLKTNILQYASTRPPTLSPIPHIPRS

Tests used:
[1] = biological target: TMR-E2F1^TD (peptide of the E2F1 transactivation domain, N-labeled with tetramethyl rhodamine); experiment: fluorescence polarisation
[2] = biological target: TMR-E2F1^TD (peptide of the E2F1 transactivation domain, N-labeled with tetramethyl rhodamine); experiment: fluorescence polarisation; remark: listed apart in the source

| Binder | binding [1] | binding [2] |
| --- | --- | --- |
| B1 | binds | binds |
| B2 | – | binds |
| B3 | binds | binds |
| B4 | – | binds |
| B5 | – | binds |
| B6 | – | binds |
| B7 | binds | binds |
